Measurements as given in patent US20020058798A1 (YEDA RESEARCH AND DEVELOPMENT, published 2002).
No constants are given. Whether binding was seen depends on the method and setting. Some results given as binding are weak or reduced against the parent protein; the word gives no strength. Blank lines part the entries; values can stand above or below the binder they belong to.

Columns and labels:
[1] = target: T1, MORT-1 (full) (human); test: yeast two-hybrid test
T1 sequence: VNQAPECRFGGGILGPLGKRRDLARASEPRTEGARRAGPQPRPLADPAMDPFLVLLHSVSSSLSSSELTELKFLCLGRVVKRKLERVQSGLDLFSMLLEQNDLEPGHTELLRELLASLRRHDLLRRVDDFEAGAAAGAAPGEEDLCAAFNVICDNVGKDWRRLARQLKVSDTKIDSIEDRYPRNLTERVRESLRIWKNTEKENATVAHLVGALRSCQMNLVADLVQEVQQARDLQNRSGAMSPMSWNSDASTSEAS

[2] = target: T1, MORT-1 (full) (human); test: yeast two-hybrid beta-galactosidase filter assay (SFY526); row = Gal4 DNA-binding-domain hybrid, column = activation-domain hybrid; + = strong color within 90 min
[3] = target: T2, MORT-1 fragment, residues 1-117 (human); test: yeast two-hybrid beta-galactosidase filter assay (SFY526); row = Gal4 DNA-binding-domain hybrid, column = activation-domain hybrid; ++ = strong color within 30 min
T2 sequence: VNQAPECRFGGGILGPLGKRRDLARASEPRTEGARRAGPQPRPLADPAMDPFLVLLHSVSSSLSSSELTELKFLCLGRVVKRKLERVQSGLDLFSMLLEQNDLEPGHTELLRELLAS

- binding [1]: binds
- binding [2]: binds
B1: MORT-1 fragment, residues 1-117 (protein)
chain: T2 sequence

B2: MORT-1 (full) (other)
chain: T1 sequence
notes: The Gal4 part is not written as a piece; Met 49 is a possible translation start; also called HF1; HF-1
- binding [3]: binds
